Results on five sequences are retold here after publication PMC11417404.

The chains behind the UniProt entries cited, without tags or fusion partners. Where a name states a change or a piece, a line headed by the entry shows the natural chain unless it says otherwise.
UniProt Q15554: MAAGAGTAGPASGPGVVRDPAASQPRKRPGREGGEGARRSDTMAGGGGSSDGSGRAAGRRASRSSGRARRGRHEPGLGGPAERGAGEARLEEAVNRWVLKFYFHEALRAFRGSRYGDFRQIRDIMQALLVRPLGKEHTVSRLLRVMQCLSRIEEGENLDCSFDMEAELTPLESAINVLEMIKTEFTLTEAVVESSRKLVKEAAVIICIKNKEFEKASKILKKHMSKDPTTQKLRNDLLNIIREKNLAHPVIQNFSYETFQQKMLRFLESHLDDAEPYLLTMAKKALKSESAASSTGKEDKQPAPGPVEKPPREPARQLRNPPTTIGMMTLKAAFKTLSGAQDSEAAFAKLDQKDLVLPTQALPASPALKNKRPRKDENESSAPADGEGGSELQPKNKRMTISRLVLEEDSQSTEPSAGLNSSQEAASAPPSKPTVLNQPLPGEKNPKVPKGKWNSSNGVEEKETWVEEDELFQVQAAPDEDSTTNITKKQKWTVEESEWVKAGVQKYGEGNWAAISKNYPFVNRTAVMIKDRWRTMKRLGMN
UniProt Q06609, whole entry: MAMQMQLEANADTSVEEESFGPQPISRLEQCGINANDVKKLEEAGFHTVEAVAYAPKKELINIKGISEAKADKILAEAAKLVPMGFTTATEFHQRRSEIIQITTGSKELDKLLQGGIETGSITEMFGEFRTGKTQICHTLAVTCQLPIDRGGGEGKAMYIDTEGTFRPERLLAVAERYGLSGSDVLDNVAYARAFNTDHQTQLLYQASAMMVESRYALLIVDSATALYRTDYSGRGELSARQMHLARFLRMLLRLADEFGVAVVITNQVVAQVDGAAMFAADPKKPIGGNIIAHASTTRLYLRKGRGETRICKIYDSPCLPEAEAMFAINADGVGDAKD
UniProt Q9NUX5: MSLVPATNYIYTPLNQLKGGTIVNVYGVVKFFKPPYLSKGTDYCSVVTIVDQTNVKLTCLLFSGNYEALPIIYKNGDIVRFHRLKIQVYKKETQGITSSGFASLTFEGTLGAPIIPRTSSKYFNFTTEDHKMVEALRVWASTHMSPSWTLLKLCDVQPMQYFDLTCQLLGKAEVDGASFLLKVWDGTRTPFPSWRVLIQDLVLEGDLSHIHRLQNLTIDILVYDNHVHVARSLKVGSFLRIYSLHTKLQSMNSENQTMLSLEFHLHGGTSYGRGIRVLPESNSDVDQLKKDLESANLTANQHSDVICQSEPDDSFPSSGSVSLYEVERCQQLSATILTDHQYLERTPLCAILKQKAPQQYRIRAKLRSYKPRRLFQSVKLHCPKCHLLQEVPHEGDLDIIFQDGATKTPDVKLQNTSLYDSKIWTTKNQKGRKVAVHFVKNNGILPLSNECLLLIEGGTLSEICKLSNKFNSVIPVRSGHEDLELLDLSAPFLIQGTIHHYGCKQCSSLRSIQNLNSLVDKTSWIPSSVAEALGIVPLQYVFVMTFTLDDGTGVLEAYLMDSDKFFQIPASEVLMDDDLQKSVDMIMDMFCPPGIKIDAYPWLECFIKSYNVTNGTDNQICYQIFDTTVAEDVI

The target in data set [1] is TRF2 (UniProt Q15554). The experiment in a line: single-molecule colocalization, RNase H protection. Particulars: TRF2 prebound to duplex, protection lost after proteinase K; Single molecule: T50 (10 mM Tris-HCl pH 7.5, 50 mM NaCl); imaging 10 mM Tris-HCl pH 7.5, 100 mM NaCl; recombinant protein; protein details: N-terminal His6; letters put together from the description.

Data set [2] addresses RAD51 (UniProt Q06609). The data set is described as follows: EMSA. The conditions noted are these: 1 mM Mg2+, 1 mM ATP, RAD51 EMSA: 50 mM Tris-HCl pH 7.5, 50 mM KCl, 1 mM MgCl2, 1 mM ATP, 37 C 10 min, 0.8% TBE agarose + 10 mM KCl at 4 C, recombinant protein. For orientation: A gel shift assay detects complexes by their altered migration in electrophoresis.
For data set [3], the target named is POT1 (Homo sapiens) (UniProt Q9NUX5). The data set is described as follows: single-molecule binding. The conditions noted are these: stably bound after 6x washes; Single molecule: T50 (10 mM Tris-HCl pH 7.5, 50 mM NaCl); imaging 10 mM Tris-HCl pH 7.5, 100 mM NaCl; recombinant protein; protein details: GST; letters put together from the description.

Construct, isoform or probe ends are uncertain for at least one entry. For some assays here: The comparison behind a weaker result is the experiment's own reference, which may not be listed here. For some assays here: At least one verdict rests on a figure or table, not on a statement of the authors.

With “TGGCGACGGCAGCGAGGCTTAGGGTTAGGGTTAGGGTTAGGG / CCCTAACCCTAACCCTAACCCTAAGCCTCGCTGCCGTCGCCA / UGGCGACGGCAGCGAGGCUUAGGGUUAGGGUUAGGGUUAGGG [telomeric duplex with annealed TERRA-18]”, in data set [1], the binding result is “binds”.

As for “TGGCGACGGCAGCGAGGCTTAGGGTTAGGGTTAGGGTTAGGG [G4-18 DNA]”, the binding result in data set [2] (lower affinity than TERRA-18, unbound band remains at 1.5 uM RAD51, label: 3' Cy3, folded or branched DNA) is reported as “binds more weakly”. As to “TGGCGACGGCAGCGAGGCTTAGGGTTAGGGTTAGGGTTAGGG [G4-18-8oxoG]”, in data set [2] (mainly lower bound band, unbound band remains at 1.5 uM RAD51, 8-oxoguanine at position 29, single-stranded DNA), the binding result is “binds more weakly”. Regarding “TGGCGACGGCAGCGAGGCTTAGGGTTAGGGTTAGGGTTAGGGTTAGGGTTAGGGTTAGGGTTAGGG / CCCTAACCCTAACCCTAACCCTAAGCCTCGCTGCCGTCGCCA [telomeric duplex with G4 overhang]”, the binding result in data set [3] is “binds”.

On to “UUUUUUUUUUUUUUUUUUUUUUUUUUUUUUUUUUUUUUUU [poly U40]”, for which, in data set [2] (mainly lower bound band, unbound band remains at 1.5 uM RAD51), the binding result is given as “binds more weakly”.
